## Screening data

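A panel of P. falciparum strains inside erythrocytes is exposed to compounds for three days, then a DNA-binding dye reports the amount of parasite DNA.
Each compound was titrated across a series from about 0.000037 to 29 µM.
The number is the fitted AC50, the concentration giving a half-maximal change in signal; a lower value means higher potency, whether the curve shows a decrease or an increase.
Calls follow the curve class and fit quality: every row here is inconclusive, covering signal-raising curves and weak, poorly fitted, partial or highest-dose-only inhibition curves.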

Values are in µM.
All entries here are filed as inconclusive.
These entries are mostly ones the record files as inconclusive; other results of the assay are not listed here.
A potency from a partial, single-point or poor curve is only a rough figure.

| Compound | condition | potency (µM) | curve as filed |
|---|---|---|---|
| `CC(C)(C)NCC(O)c1cc(Cl)c(N)c(Cl)c1` (stereo not shown) | AA1029 | 10 | inhibitor, partial curve |
| `CC(C)(C)NCC(O)c1cc(Cl)c(N)c(Cl)c1` (stereo not shown) | CP185 | 7.08 | inhibitor, partial curve |
| `CC(C)(C)NCC(O)c1cc(Cl)c(N)c(Cl)c1` (stereo not shown) | CP192 | 13.46 | inhibitor, single point |
| `CC(C)(C)NCC(O)c1cc(Cl)c(N)c(Cl)c1` (stereo not shown) | parasite line B | 10 | inhibitor, partial curve |
| `CC(C)(C)NCC(O)c1cc(Cl)c(N)c(Cl)c1` (stereo not shown) | CP194 | 13.46 | inhibitor, partial curve |
| `CC(C)(C)NCC(O)c1cc(Cl)c(N)c(Cl)c1` (stereo not shown) | TAB113 | 10 | inhibitor, single point |
| `NC(CS)C(=O)O` (stereo not shown) | CP203 | 19.01 | inhibitor, single point |
| `NC(CS)C(=O)O` (stereo not shown) | CP217 | 17.78 | inhibitor, single point |
| `NC(CS)C(=O)O` (stereo not shown) | TAB165 | 11.22 | inhibitor, single point |
| `NC(CS)C(=O)O` (stereo not shown) | JCK | 17.78 | inhibitor, single point |
| `NC(CS)C(=O)O` (stereo not shown) | CP269 | 15.1 | inhibitor, single point |
| `NC(CS)C(=O)O` (stereo not shown) | CP256 | 11.22 | inhibitor, single point |
| `NC(CS)C(=O)O` (stereo not shown) | SC27B | 17.78 | inhibitor, single point |
| `NC(CS)C(=O)O` (stereo not shown) | FAB9 | 12.59 | inhibitor, single point |
| `NC(CS)C(=O)O` (stereo not shown) | PC49 | 17.78 | inhibitor, single point |
| `NC(CS)C(=O)O` (stereo not shown) | CP325 | 19.01 | inhibitor, single point |
| `NC(CS)C(=O)O` (stereo not shown) | CP266 | 0.0008 | inhibitor |
| `NC(CS)C(=O)O` (stereo not shown) | PC15 | 10 | inhibitor, single point |
| `NC(CS)C(=O)O` (stereo not shown) | CP268 | 19.01 | inhibitor, single point |
| `NC(CS)C(=O)O` (stereo not shown) | ATS189 | 17.78 | inhibitor, single point |
| `NC(CS)C(=O)O` (stereo not shown) | CP247 | 17.78 | inhibitor, single point |
| `NC(CS)C(=O)O` (stereo not shown) | CP215 | 19.01 | inhibitor, single point |
| `NC(CS)C(=O)O` (stereo not shown) | CP237 | 10 | inhibitor, single point |
| `NC(CS)C(=O)O` (stereo not shown) | Dd2 | 11.22 | inhibitor, single point |
| `NC(CS)C(=O)O` (stereo not shown) | 3D7 | 15.85 | inhibitor, single point |
| `NC(CS)C(=O)O` (stereo not shown) | GB4 | 19.01 | inhibitor, single point |
| `NC(CS)C(=O)O` (stereo not shown) | PC26 | 13.46 | inhibitor, single point |
| `NC(CS)C(=O)O` (stereo not shown) | CP238 | 17.78 | inhibitor, single point |
| `NC(CS)C(=O)O` (stereo not shown) | CP194 | 0.9528 | inhibitor, partial curve |
| `NC(CS)C(=O)O` (stereo not shown) | CP305 | 16.94 | inhibitor, single point |
| `NC(CS)C(=O)O` (stereo not shown) | CP286 | 17.78 | inhibitor, single point |
| `NC(CS)C(=O)O` (stereo not shown) | CP265 | 10 | inhibitor, single point |
| `NC(CS)C(=O)O` (stereo not shown) | ECU | 10 | inhibitor, single point |

Once more, the final 3:

{"compound": "NC(CS)C(=O)O", "stereo": "stereo not shown", "condition": "CP286", "potency (µM)": "17.78", "curve as filed": "inhibitor, single point"}
{"compound": "NC(CS)C(=O)O", "stereo": "stereo not shown", "condition": "CP265", "potency (µM)": "10", "curve as filed": "inhibitor, single point"}
{"compound": "NC(CS)C(=O)O", "stereo": "stereo not shown", "condition": "ECU", "potency (µM)": "10", "curve as filed": "inhibitor, single point"}

From PubChem BioAssay record AID504749 (NCATS, 2011).